Experimental data: paper PMC10703867

Molecular target: T1, FOXQ1 (forkhead box transcription factor FOXQ1) (human (endogenous in MDA-MB-231-RR)) (UniProt Q9C009)
T1 sequence: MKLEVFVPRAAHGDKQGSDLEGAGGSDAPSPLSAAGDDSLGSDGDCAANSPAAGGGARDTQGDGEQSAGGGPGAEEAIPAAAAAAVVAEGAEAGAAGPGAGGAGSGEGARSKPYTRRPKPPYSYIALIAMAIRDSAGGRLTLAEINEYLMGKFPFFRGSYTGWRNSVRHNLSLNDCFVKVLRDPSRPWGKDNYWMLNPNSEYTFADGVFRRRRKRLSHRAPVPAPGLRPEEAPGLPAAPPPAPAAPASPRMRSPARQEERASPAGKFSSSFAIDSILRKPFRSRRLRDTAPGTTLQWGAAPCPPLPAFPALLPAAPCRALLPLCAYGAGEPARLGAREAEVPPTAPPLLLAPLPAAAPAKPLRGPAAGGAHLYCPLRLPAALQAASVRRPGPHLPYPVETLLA
Test: affinity purification with mass spectrometry; MDA-MB-231-RR cells lysed in RIPA buffer; anti-FOXQ1 antibody or control IgG overnight at 4 °C, protein A/G agarose beads; SDS-PAGE, silver stain, in-gel trypsin digestion, LC-MS/MS

binding: binds
Substance: RAPH1 (from UniProt Q70E73-9)

No constants are given. Whether binding was seen depends on the method and setting. In cells and extracts the contact can be indirect. Here binding means that the protein was enriched with, or labelled near, the bait; the list need not be complete.
